Reference: the supplement of paper PMC7024190
Counter-ions that a name gives are not always drawn. The list shows a part of the results. Single values are uncertain here, since repeats match poorly.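 A first-round screen of about ten thousand compounds sought those raising reporter output, using human embryonic kidney cells briefly transfected with a plasmid carrying a Renilla luciferase gene driven by the HSV-TK promoter.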

These molecules were tested on HEK 293FT (assay: log relative Renilla luciferase luminescence (reporter expression vs reference, reference not stated) (log (base not stated)); higher = higher recombinant reporter expression). Conditions: 10 µM; time after transfection 48 h.

SMILES	log
Nc1ccc(S(=O)(=O)Nc2nccs2)cc1 [Sulfathiazole]	0.214
CCCc1nc(C(C)(C)O)c(C(=O)O)n1Cc1ccc(-c2ccccc2-c2nnn[nH]2)cc1 [Olmesartan]	-0.964
C[C@]12C=CC(=O)N[C@@H]1CC[C@@H]1[C@@H]2CC[C@]2(C)[C@@H](C(=O)Nc3cc(C(F)(F)F)ccc3C(F)(F)F)CC[C@@H]12 [Dutasteride]	-0.0405
C[C@H]1O[C@@H](n2cc(F)c(=O)[nH]c2=O)[C@H](O)[C@@H]1O [Doxifluridine Hydrochloride]	-0.0897
O=C(N/N=C/c1ccccc1O)c1ccncc1 [Salinazid]	-0.0525
Cn1cnc(Cl)c1[N+](=O)[O-] [Chlomizol]	0.0592
O=c1c(-c2ccc(O)cc2)coc2c([C@@H]3O[C@H](CO)[C@@H](O)[C@H](O)[C@H]3O)c(O)ccc12 [Puerarin]	-0.568
CCCOc1ccc(C(=O)OCCN(CC)CC)cc1N [Proxymetacaine Hydrochloride]	0.00428
CC1(C)C=Cc2c(ccc3c2OC[C@@H](c2ccc(O)cc2O)C3)O1 [Glabridin]	-0.00831
C[C@]12C=CC(=O)C=C1CC[C@H]1[C@@H]3C[C@@H](O)[C@](O)(C(=O)CO)[C@@]3(C)C[C@H](O)[C@@]12F [Triamcinolone]	0.121
O=c1oc2cc(O)ccc2s1 [Tioxolone]	0.228
CC(C)C(=O)OCC(=O)[C@@]12O[C@H](C3CCCCC3)O[C@@H]1C[C@H]1[C@@H]3CCC4=CC(=O)C=C[C@]4(C)[C@H]3[C@@H](O)C[C@@]12C [Ciclesonide]	-0.0634
C=C1C(=O)O[C@@H]2[C@H]1CC[C@H](C)[C@]1(O)CCC(=O)[C@@]21C [Coronopilin]	-0.0781
COc1cc(C(=O)NCCCCCC(=O)O)cc(OC)c1OC [Capobenic acid]	0.141
CC(C(=O)O)c1ccc2c(c1)[nH]c1ccc(Cl)cc12 (centres undefined) [Carprofen]	0.119
OCc1ccc(O[C@@H]2O[C@H](CO)[C@@H](O)[C@H](O)[C@H]2O)cc1 [Gastrodin]	0.193
CC(=O)SCCC(=O)N1[C@@H](C)CCC[C@H]1C(=O)O [Metiapril]	0.0142
O=C(O)CCC(=O)Nc1ccc(S(=O)(=O)Nc2nccs2)cc1 [Succinylsulfathiazole]	0.0918
CC(C)=CCNc1ncnc2nc[nH]c12 [Isopentenyladenine]	-0.0904
O=C1c2cccc3c2[C@H](CCC3)CN1[C@@H]1CN2CCC1CC2 [Palonosetron Hydrochloride]	0.225

SMILES	log
O=C1C2CC3CC1CC(O)(C3)C2 [Idramantone]	0.0267
C(=N\N1CCN(C(c2ccccc2)c2ccccc2)CC1)/c1ccccn1	0.0131
Cc1c(Cn2ccnc2)c2ccccc2n1CCC(=O)O [Dazmegrel]	-0.138
Cc1cc(NC(=O)C2=C(O)c3ccccc3S(=O)(=O)N2C)no1 [Isoxicam]	-0.191
CCC(=O)O[C@]1(C(=O)SCF)[C@H](C)C[C@H]2[C@@H]3C[C@H](F)C4=CC(=O)C=C[C@]4(C)[C@@]3(F)[C@@H](O)C[C@@]21C [Fluticasone Propionate]	-0.135
COc1ccc(C2C(=O)c3ccccc3C2=O)cc1 [Anisindione]	0.0306
CCC(C(=O)OCCOCCN(CC)CC)c1ccccc1 (centres undefined) [Butamirate Citrate]	0.029
O=C1c2ccccc2-c2n[nH]c3cccc1c23 [1,9-Pyrazoloanthrone]	0.167
COc1ccc(Cc2cnc(N)nc2N)cc1OC [Diaveridine]	0.162
C=C1C(=O)O[C@@H]2C[C@@]3(C)CCC[C@H](C)C3=C[C@H]12 [Helenin]	-1.63
CCOc1ccc(NC(=S)Nc2ccc(OCC)cc2)cc1 [Etocarlide]	-0.0552
O=C1C=C(O)C(=O)c2ccccc21 [Lawsone]	0.165
CCCCN(CCCC)CC(O)c1cc(Cl)cc2c1-c1ccc(Cl)cc1/C2=C/c1ccc(Cl)cc1 (centres undefined) [Lumefantrine]	0.0735
Cc1cc(C)nc(Nc2nc3ccc([N+](=O)[O-])cc3[nH]2)n1	-0.0438
O=C(O)c1cc(=O)cc(C(=O)O)o1 [Chelidonic acid]	0.00309
CCCCCC(=O)O[C@]1(C(C)=O)CC[C@H]2[C@@H]3CCC4=CC(=O)CC[C@]4(C)[C@H]3CC[C@@]21C [Hydroxyprogesterone caproate]	-0.0675
CC(=O)O[C@]1(C(C)=O)CC[C@H]2[C@@H]3C[C@H](C)C4=CC(=O)CC[C@]4(C)[C@H]3CC[C@@]21C [Medroxyprogesone acetate]	0.102
CC1(C)S[C@@H]2[C@H](NC(=O)Cc3ccccc3)C(=O)N2[C@H]1C(=O)O [Benzylpenicillin]	0.186
O=C(NC1CCCCC1)c1cc(-c2ccccc2)nc2ccccc12 [Cycinchophene]	-0.0138

Some of the entries so far, with bars between the fields:
SMILES | log
CCC(=O)O[C@]1(C(=O)SCF)[C@H](C)C[C@H]2[C@@H]3C[C@H](F)C4=CC(=O)C=C[C@]4(C)[C@@]3(F)[C@@H](O)C[C@@]21C [Fluticasone Propionate] | -0.135
COc1ccc(C2C(=O)c3ccccc3C2=O)cc1 [Anisindione] | 0.0306
CCC(C(=O)OCCOCCN(CC)CC)c1ccccc1 (centres undefined) [Butamirate Citrate] | 0.029
O=C1c2ccccc2-c2n[nH]c3cccc1c23 [1,9-Pyrazoloanthrone] | 0.167
COc1ccc(Cc2cnc(N)nc2N)cc1OC [Diaveridine] | 0.162
C=C1C(=O)O[C@@H]2C[C@@]3(C)CCC[C@H](C)C3=C[C@H]12 [Helenin] | -1.63
CCOc1ccc(NC(=S)Nc2ccc(OCC)cc2)cc1 [Etocarlide] | -0.0552
O=C1C=C(O)C(=O)c2ccccc21 [Lawsone] | 0.165
CCCCN(CCCC)CC(O)c1cc(Cl)cc2c1-c1ccc(Cl)cc1/C2=C/c1ccc(Cl)cc1 (centres undefined) [Lumefantrine] | 0.0735
Cc1cc(C)nc(Nc2nc3ccc([N+](=O)[O-])cc3[nH]2)n1 | -0.0438
O=C(O)c1cc(=O)cc(C(=O)O)o1 [Chelidonic acid] | 0.00309
